In paper PMC7269909:
No constants are given. Whether binding was seen depends on the method and setting. In cells and extracts the contact can be indirect. For part of these data: Tags and fused reporters may be left off the sequences shown. Values belong to the binder of their own block, whether it stands above or below them.

How the values were obtained:
[1] = biological target: GFP-tagged DEPTOR with deletion of the PDZ domain; experiment: co-IP; transfected HEK293 or U251 cells lysed in IP buffer (25 mM Tris pH 7.5, 150 mM NaCl, 1% Triton X-100, 1 mM EDTA); antibody at 4 °C overnight, Protein A/G magnetic beads 2 h at 4 °C, four washes; western blot
[2] = biological target: GST-fused DEP domain of DEPTOR; experiment: pull-down; purified GST fusion proteins of DEPTOR on glutathione-Sepharose 4B beads incubated 4 h with lysate of HEK293 cells transfected with FLAG-tagged LRRC4, IP buffer, four washes; western blot; only the target purified
GST-fused DEPTOR ΔPDZ = experiment: as above

binding [1]: no binding
B1: LRRC4 (pCDNA3.1-LRRC4) (protein, UniProt Q9HBW1 39-653)
chain: ASAGPQNCPSVCSCSNQFSKVVCTRRGLSEVPQGIPSNTRYLNLMENNIQMIQADTFRHLHHLEVLQLGRNSIRQIEVGAFNGLASLNTLELFDNWLTVIPSGAFEYLSKLRELWLRNNPIESIPSYAFNRVPSLMRLDLGELKKLEYISEGAFEGLFNLKYLNLGMCNIKDMPNLTPLVGLEELEMSGNHFPEIRPGSFHGLSSLKKLWVMNSQVSLIERNAFDGLASLVELNLAHNNLSSLPHDLFTPLRYLVELHLHHNPWNCDCDILWLAWWLREYIPTNSTCCGRCHAPMHMRGRYLVEVDQASFQCSAPFIMDAPRDLNISEGRMAELKCRTPPMSSVKWLLPNGTVLSHASRHPRISVLNDGTLNFSHVLLSDTGVYTCMVTNVAGNSNASAYLNVSTAELNTSNYSFFTTVTVETTEISPEDTTRKYKPVPTTSTGYQPAYTTSTTVLIQTTRVPKQVAVPATDTTDKMQTSLDEVMKTTKIIIGCFVAVTLLAAAMLIVFYKLRKRHQQRSTVTAARTVEIIQVDEDIPAATSAAATAAPSGVSGEGAVVLPTIHDHINYNTYKPAHGAHWTENSLGNSLHPTVTTISEPYIIQTHTKDKVQETQI

binding [2]: no binding
binding (GST-fused DEPTOR ΔPDZ): no binding
B2: FLAG-tagged LRRC4 (protein, UniProt Q9HBW1 39-653)
chain: B1 chain
